Square brackets hold non-standard residues; d marks the D form. Peptide text beside a SMILES is read from it.
Assay: CD spectroscopy
Assay type: physicochemical
Settings: 30 mM SDS, 150 μM peptide, 25°C, average of three scans

Row | Structure (SMILES) | [θ]220 (mean residue ellipticity) [deg×cm^2×dmol^-1]
1 | CC[C@H](C)[C@H](NC(=O)CNC(=O)[C@H]1CCCN1C(=O)[C@H](CCCCN)NC(=O)[C@H](Cc1c[nH]c2ccccc12)NC(=O)[C@@H](NC(=O)[C@@H](N)CCCCN)[C@@H](C)CC)C(=O)N[C@@H](CCCCN)C(=O)N[C@@H](CCCCN)C(=O)N[C@@H](Cc1c[nH]c2ccccc12)C(=O)O [Peptide 1] (H-KIWK[dP]GIKKW-OH; N-terminus and C-terminus assumed) | −728
2 | CC[C@H](C)[C@H](NC(=O)CNC(=O)[C@H]1CCCN1C(=O)[C@H](CCCCN)NC(=O)[C@H](Cc1c[nH]c2ccccc12)NC(=O)[C@@H](NC(=O)[C@H](CCCCN)NC(=O)[C@H](CCCCN)NC(=O)[C@@H](N)Cc1c[nH]c2ccccc12)[C@@H](C)CC)C(=O)N[C@@H](CCCCN)C(=O)N[C@@H](CCCCN)C(=O)N[C@@H](Cc1c[nH]c2ccccc12)C(=O)N[C@H](C(=O)N[C@@H](CCCCN)C(=O)O)[C@@H](C)CC [Peptide 2] (H-WKKIWK[dP]GIKKWIK-OH; N-terminus and C-terminus assumed) | −839
3 | CC[C@H](C)[C@H](NC(=O)CNC(=O)[C@H]1CCCN1C(=O)[C@H](CCCCN)NC(=O)[C@H](Cc1c[nH]c2ccccc12)NC(=O)[C@@H](NC(=O)[C@H](CCCCN)NC(=O)[C@H](CCCCN)NC(=O)[C@H](Cc1c[nH]c2ccccc12)NC(=O)[C@@H](NC(=O)[C@@H](N)CCCCN)[C@@H](C)CC)[C@@H](C)CC)C(=O)N[C@@H](CCCCN)C(=O)N[C@@H](CCCCN)C(=O)N[C@@H](Cc1c[nH]c2ccccc12)C(=O)N[C@H](C(=O)N[C@@H](CCCCN)C(=O)N[C@@H](CCCCN)C(=O)N[C@@H](Cc1c[nH]c2ccccc12)C(=O)O)[C@@H](C)CC [Peptide 3] (H-KIWKKIWK[dP]GIKKWIKKW-OH; N-terminus and C-terminus assumed) | −1668
4 | CC[C@H](C)[C@H](NC(=O)CNC(=O)[C@H]1CCCN1C(=O)[C@H](CCCCN)NC(=O)[C@H](Cc1c[nH]c2ccccc12)NC(=O)[C@@H](NC(=O)[C@H](CCCCN)NC(=O)[C@H](CCCCN)NC(=O)[C@H](Cc1c[nH]c2ccccc12)NC(=O)[C@@H](NC(=O)[C@H](CCCCN)NC(=O)[C@H](CCCCN)NC(=O)[C@@H](N)Cc1c[nH]c2ccccc12)[C@@H](C)CC)[C@@H](C)CC)C(=O)N[C@@H](CCCCN)C(=O)N[C@@H](CCCCN)C(=O)N[C@@H](Cc1c[nH]c2ccccc12)C(=O)N[C@H](C(=O)N[C@@H](CCCCN)C(=O)N[C@@H](CCCCN)C(=O)N[C@@H](Cc1c[nH]c2ccccc12)C(=O)N[C@H](C(=O)N[C@@H](CCCCN)C(=O)O)[C@@H](C)CC)[C@@H](C)CC [Peptide 4] (H-WKKIWKKIWK[dP]GIKKWIKKWIK-OH; N-terminus and C-terminus assumed) | −6924

Source: article doi:10.1101/679977v1 (bioRxiv, 2019)
